# Results taken from the supplement of paper PMC8104966.
# This is one part of the list. Single values are uncertain here, since repeats match poorly.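 U2OS cells carrying ACE2 were mixed with U2OS cells carrying full-length spike, and fusion was scored by imaging as the share of nuclei showing both cell types' fluorescent markers. A compound counts as an inhibitory hit when it is non-toxic and its fusion z-score falls below -3, meaning more than three standard deviations below the plate's DMSO wells.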
# System: U2OS ACE2 x SARS-CoV-2 spike co-culture
# Assay: cell-cell fusion (fraction fused) z-score vs plate DMSO control; higher = more fusion
# Details: 30 µM; 5 h; toxicity class: non-toxic, passed QC
row,SMILES,cell-cell fusion (z-score)
1,N[C@@H](Cc1cc(I)c(Oc2ccc(O)c(I)c2)c(I)c1)C(=O)[O-].[Na+] [Liothyronine sodium],inactive: 0.825
2,CCCCCCCCCCC(C)(C)C(=O)Nc1c(OC)cc(OC)cc1OC,inactive: 3.48
3,CC(=O)O[C@H]1C(=O)[C@@]2(C)[C@H]([C@H](OC(=O)c3ccccc3)[C@]3(O)C[C@H](OC(=O)[C@H](O)[C@@H](NC(=O)c4ccccc4)c4ccccc4)C(C)=C1C3(C)C)[C@]1(OC(C)=O)CO[C@@H]1C[C@@H]2O [Paclitaxel],inactive: -0.838
4,COc1ccc(-c2coc3cc(OC)cc(OC)c3c2=O)cc1,inactive: 1.13
5,C#CCN(C)CCCOc1ccc(Cl)cc1Cl.Cl,inactive: 1.04
6,CN(NC(=O)CC(=O)NN(C)C(=S)c1ccccc1)C(=S)c1ccccc1 [Elesclomol],inactive: 1.38
7,COP(=S)(OC)Oc1ccc(SC)c(C)c1,inactive: 2.5
8,CCN(CC)CC(=O)Nc1c(C)cccc1C.Cl.O [Lidocaine Hydrochloride hydrate],inactive: 2.72
9,"Oc1cc(-c2ccccc2)nc2nc(Cl)ccc12 [7-Chloro-4-hydroxy-2-phenyl-1,8-naphthyridine]",inactive: 1.39
10,Cc1ccccc1C(OCCN(C)C)c1ccccc1.O=C(O)CC(O)(CC(=O)O)C(=O)O (centres undefined),inactive: 1.99
11,CC(CCc1ccccc1)NCC(O)c1ccc(O)c(C(N)=O)c1.Cl (centres undefined) [Labetalol hydrochloride],inactive: 1.69
12,COc1c(C)c2c(c(O)c1C/C=C(\C)CCC(=O)OCCN1CCOCC1)C(=O)OC2 [Mycophenolate Mofetil],inactive: 0.917
13,COC1=CC(=O)OC(/C=C/c2ccccc2)C1 (centres undefined),inactive: 2.24
14,CCOc1ccc2nc(S(N)(=O)=O)sc2c1,inactive: 1.2
15,N#Cc1c(Oc2ccc(F)c(NC(=O)Cc3cccc(C(F)(F)F)c3)c2)ccc2nc(NC(=O)C3CC3)sc12,inactive: 1.72
16,CCCCc1oc2ccccc2c1C(=O)c1cc(I)c(OCCN(CC)CC)c(I)c1.Cl [Amiodarone hydrochloride],inactive: -1.55
17,COc1ccc(C(=O)c2ccc(O)cc2)c(O)c1O,inactive: 1.72
18,CCc1ccc(CCOc2ccc(CC3SC(=O)NC3=O)cc2)nc1 (centres undefined) [Pioglitazone],inactive: 2.46
19,CC(=O)Nc1cc([As](=O)(O)O)ccc1O,inactive: 2.81
20,O=C1C=C(O)C(=O)c2ccccc21,inactive: 1.5
21,"CCN(CC)CCOC(=O)c1cc(Cl)c(N)cc1OC.Cl [SDZ-205,557 hydrochloride]",inactive: -2.39
22,O=C(C1CCCCC1)N1CC(=O)N2CCc3ccccc3C2C1 (centres undefined) [Praziquantel],inactive: 2.2
23,CCOC(=O)N1CCC(=C2c3ccc(Cl)cc3CCc3cccnc32)CC1 [Loratadine],inactive: 1.88
24,CC(=O)O[C@]1(C(C)=O)CC[C@H]2[C@@H]3C[C@H](C)C4=CC(=O)C=C[C@]4(C)[C@@]3(F)[C@@H](O)C[C@@]21C [Fluorometholone Acetate],inactive: 2.74
25,"Br.Br.N=C(N)SCCc1ccc(CCSC(=N)N)cc1 [1,4-PB-ITU dihydrobromide]",inactive: 1.78

row,SMILES,cell-cell fusion (z-score)
1,Cl.NC1CC1c1ccccc1 (centres undefined) [Tranylcypromine hydrochloride],inactive: -1.76
2,CC(C)(C)C(=O)Oc1ccc(S(=O)(=O)Nc2ccccc2C(=O)NCC(=O)[O-])cc1.[Na+] [Sivelestat sodium salt hydrate],inactive: 2.73
3,O=C([O-])/C=C/C(=O)[O-].[Fe+2] [Ferrous fumarate],inactive: 2.72
4,Br.CN1C2CC(OC(=O)[C@H](CO)c3ccccc3)C[C@H]1[C@H]1OC21 (some centres undefined),inactive: -2.29
5,Cl.N=C(N)NCCC[C@H](N)C(=O)O [L-arginine monohydrochloride],inactive: 3.22
6,COC(=O)C1=C(C)NC(C)=C(C(=O)OC)C1c1ccccc1[N+](=O)[O-],inactive: 0.182
7,Oc1ccc(Cl)cc1Cc1cc(Cl)ccc1O,inactive: -2.11
8,O=c1[nH]c(=O)c2nc3ccccc3nc2[nH]1 [Alloxazine],inactive: 1.52
9,C#CCCCCCCCCCCCC(O)CC(O)CO.C=CCCCCCCCCCCCC(O)CC(O)CO (centres undefined),inactive: 1.67
10,CC(C)(c1ccc(O)cc1)c1ccc(O)cc1,inactive: 1.97
11,O=C(Nc1ccc([N+](=O)[O-])cc1Cl)c1cc(Cl)ccc1O [Niclosamide],inactive: 0.0182
12,CCC(=O)O[C@H]1CCC2C3CCC4=CC(=O)CC[C@]4(C)C3CC[C@@]21C (some centres undefined),inactive: 1.41
13,"Br.CN1CCc2cc(O)cc3c2[C@H]1Cc1ccc(O)c(O)c1-3 [R(-)-2,10,11-Trihydroxyaporphine hybrobromide]",inactive: -1.37
14,OC[C@@H](O)[C@@H](O)[C@H](O)[C@H](O)CO [D-Mannitol],inactive: 2.61
15,COC(=O)[C@@H]1C[C@H](OC(C)=O)C(=O)[C@H]2[C@@]1(C)CC[C@H]1C(=O)O[C@H](c3ccoc3)C[C@]21C,inactive: 1.94
16,CCCc1c(OCCCOc2ccc(OCC(=O)O)cc2)ccc(C(C)=O)c1O,inactive: 3.39
17,CC1=C(C(=O)O)N2C(=O)[C@@H](NC(=O)C(N)c3ccc(O)cc3)[C@H]2SC1 (some centres undefined),inactive: 1.29
18,Br.COC(=O)C1=CCCN(C)C1 [Arecoline hydrobromide],inactive: 1.92
19,Br.COC(=O)C1=CCCN(C)C1,inactive: 3.35
20,Cc1cccc([C@H](C)c2cnc[nH]2)c1C [Dexmedetomidine],inactive: 1.65
21,CC(C)NCC(O)COc1ccc(CCOCC2CC2)cc1.Cl (centres undefined) [Betaxolol hydrochloride],inactive: 2.56
22,CCNC(=O)c1noc(-c2cc(C(C)C)c(O)cc2O)c1-c1ccc(CN2CCOCC2)cc1,inactive: 1.63
23,O=C(CCCCC(=O)Nc1c(I)cc(I)c(C(=O)O)c1I)Nc1c(I)cc(I)c(C(=O)O)c1I,inactive: 3.91
24,Br.Cc1onc(O)c1CC(N)C(=O)O (racemic) [(±)-AMPA hydrobromide],inactive: 0.74
25,O=C(O)c1cc(-c2ccc(F)cc2F)ccc1O,inactive: 0.626

# Reprinted at random: four records from the list, in no set order.
row,SMILES,cell-cell fusion (z-score)
24,Br.Cc1onc(O)c1CC(N)C(=O)O (racemic) [(±)-AMPA hydrobromide],inactive: 0.74
14,OC[C@@H](O)[C@@H](O)[C@H](O)[C@H](O)CO [D-Mannitol],inactive: 2.61
9,C#CCCCCCCCCCCCC(O)CC(O)CO.C=CCCCCCCCCCCCC(O)CC(O)CO (centres undefined),inactive: 1.67
22,CCNC(=O)c1noc(-c2cc(C(C)C)c(O)cc2O)c1-c1ccc(CN2CCOCC2)cc1,inactive: 1.63

# More records.

row,SMILES,cell-cell fusion (z-score)
1,CO/N=C1\CN(c2nc3c(cc2F)c(=O)c(C(=O)O)cn3C2CC2)CC1CN.CS(=O)(=O)O (centres undefined),inactive: 5.65
2,Cc1c(C)c2c(c(C)c1O)CCC(C)(C(=O)O)O2 (centres undefined),inactive: 4.17
3,"CC1(C)CCC=[N+]1[O-] [5,5-Dimethyl-1-pyrroline-N-oxide]",inactive: 2.2
4,Nc1ncnc2c1ncn2C1CCCO1 (centres undefined),inactive: -1.5
5,Br.COc1ccc2c(c1)[C@]13CCCC[C@@H]1[C@H](C2)N(C)CC3,inactive: 0.382
6,CNCc1ccccc1.Cl,inactive: 2.1
7,CC(C)(C)c1cc(C=C(C#N)C#N)cc(C(C)(C)C)c1O [Tyrphostin 9],inactive: 2.28
8,CC(C)(C)NCC(O)c1ccc(O)c(CO)c1 (centres undefined),inactive: 3.9
9,O=C1O[C@H]([C@@H](O)CO)C([O-])=C1O.[Na+] [Sodium ascorbate],inactive: 1.8
10,CCC(=O)O[C@]1(C(=O)CCl)[C@@H](C)C[C@H]2[C@@H]3CCC4=CC(=O)C=C[C@]4(C)[C@@]3(F)[C@@H](O)C[C@@]21C [Clobetasol propionate],inactive: -2.08
11,OC[C@H]1OC(O)[C@H](O)[C@@H](O)[C@@H]1O (stereo partly drawn) [D(+)-Glucose],inactive: 3.1
12,NCCCC(=O)O,inactive: 2.03
13,CCCC(=O)O[C@]1(C(=O)COC(C)=O)CC[C@H]2[C@@H]3C[C@H](F)C4=CC(=O)C=C[C@]4(C)[C@@]3(F)[C@@H](O)C[C@@]21C [Difluprednate],inactive: 2.38
14,CC(C)(C)NCC(O)COc1cccc2c1C[C@H](O)[C@H](O)C2 (some centres undefined) [Nadolol],inactive: 2.32
15,C[C@]12CCC3c4ccc(O)cc4CCC3C1CC[C@@H]2O (some centres undefined),inactive: 0.75
16,O=C(O[C@H]1C[N+]2(CCCOc3ccccc3)CCC1CC2)C(O)(c1cccs1)c1cccs1.[Br-] [Aclidinium bromide],inactive: 1.09
17,C=C(C)[C@H]1CC=C(C(=O)O)CC1,inactive: 2.02
18,Cl.Cn1ccc2cc3c(cc21)CCN3C(=O)Nc1cccnc1,inactive: 1.05
19,CC(C)N(CCC(C(N)=O)(c1ccccc1)c1ccccn1)C(C)C.O=P(O)(O)O (centres undefined) [Disopyramide phosphate],inactive: 3.32
20,CC(C)N(CCC(C(N)=O)(c1ccccc1)c1ccccn1)C(C)C.O=P(O)(O)O (centres undefined),inactive: 1.88
21,O.O=C([O-])C1=CS[C@@H]2/C(=C\c3cnc4n3CCOC4)C(=O)N12.[Na+] [BLI-489 hydrate],inactive: 0.71
22,O.O=C([O-])C1=CS[C@@H]2/C(=C\c3cnc4n3CCOC4)C(=O)N12.[Na+],inactive: 3.48
23,CC1OC1P(=O)([O-])[O-].[Ca+2] (centres undefined),inactive: -0.858
24,Cc1onc(-c2c(Cl)cccc2Cl)c1C(=O)N[C@@H]1C(=O)N2[C@@H]1SC(C)(C)[C@@H]2C(=O)[O-].O.[Na+] [Dicloxacillin sodium monohydrate],inactive: 2.4
